Test results: the supplement of paper PMC9254222
Counter-ions that a name gives are not always drawn. Over roughly 1,100 compounds, “Renilla luciferase signal (cell health) relative to plate median” has its median near 0.97; the highest 2% begin near 1.6. The entries are a selection whose mix differs from that of the whole data set.

Test system: HEK293T (UBE3A T485A transfected, BAR Wnt reporter)
Assay: Renilla luciferase signal (cell health) relative to plate median (fold (linear ratio)); higher = higher Renilla signal
Settings: 24 h
In short: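 Using Fugene 6, HEK293T cells in white 384-well plates (4500 cells/well; DMEM, 10% FBS, 37°C, 5% CO2) were transfected with a BAR firefly luciferase Wnt reporter, TK-Renilla and an expression plasmid. After four hours, robots dosed the chemicals at 0.01–100 uM, and a Dual-Glo luciferase readout followed 24 h later. Per-plate median-centred firefly/Renilla ratios gave Wnt activity, while per-plate median-centred raw Renilla signals gave cell health. Four biological replicates were averaged.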

| Structure (SMILES) | Renilla luciferase signal (concentration: 0.1 uM) | Renilla luciferase signal (concentration: 1 uM) | Renilla luciferase signal (concentration: 10 uM) | Renilla luciferase signal (concentration: 100 uM) | Renilla luciferase signal (concentration: 0.01 uM) |
| --- | --- | --- | --- | --- | --- |
| CCCC[C@H]1CN(CC2CCOCC2)C(=O)OC12CCN(C1(C)CCN(C(=O)c3c(C)ncnc3C)CC1)CC2 | 1.08 | 1 | 1.05 | 1.06 | – |
| C[C@]12C=CC(=O)C=C1CC[C@@H]1[C@@H]2C(=O)C[C@@]2(C)[C@H]1CC[C@]2(O)C(=O)CO [Prednisone] | 1.1 | 1.05 | 1.14 | 1.25 | – |
| COC(=O)c1ccc(C(=O)OC)cc1 [Dimethyl terephthalate] | 0.95 | 1.09 | 1.01 | 1.36 | – |
| CCOC(=O)CC(O)(CC(=O)OCC)C(=O)OCC [Triethyl citrate] | 0.872 | 0.912 | 0.925 | 1.18 | – |
| Cc1ccc(C)c(O)c1C [2,3,6-Trimethylphenol] | 0.934 | 0.808 | 0.965 | 1.14 | – |
| CCCC(CCC)C(=O)O [Valproic acid] | 0.847 | 0.87 | 0.883 | 1.56 | 0.788 |
| CC(C)c1ccc(C(=O)N=C(N)N)cc1S(C)(=O)=O.CS(=O)(=O)O [Cariporide mesylate] | 0.921 | 0.862 | 0.925 | 0.891 | – |
| O=C(CCCN1CCC(O)(c2ccc(Cl)cc2)CC1)c1ccc(F)cc1 [Haloperidol] | 0.97 | 0.967 | 1.03 | 0.499 | – |
| CCCCCCc1ccc(O)cc1O [4-Hexylresorcinol] | 0.881 | 1.04 | 0.888 | 0.0332 | – |
| CC(=O)Oc1ccccc1C(=O)O [Aspirin] | 0.978 | 0.932 | 1.05 | 1.24 | – |
| O=C1OC(c2ccc(O)cc2)(c2ccc(O)cc2)c2ccccc21 [Phenolphthalein] | 1.1 | 1.09 | 1.15 | 0.0287 | – |
| CCn1nc(C)c2c1C(=O)NCC(c1ccc(O)cc1)=N2 | 1.07 | 0.999 | 0.744 | 0.116 | – |
| NC(=O)Cn1c(=O)cc(CCN2CCN(c3nccc4sccc34)CC2)c2ccc(F)cc21 [Trelanserin] | 0.931 | 1.12 | 0.985 | 0.822 | – |
| Cc1ccc(C(C)C)c(O)c1 [Thymol] | 0.772 | 0.833 | 0.856 | 1.04 | – |
| OCC(O)CO [Glycerol] | 0.57 | 0.665 | 0.669 | 0.79 | – |
| CCN(CC)C(=S)SSC(=S)N(CC)CC [Disulfiram] | 0.78 | 0.851 | 0.853 | 0.534 | – |
| O=N[O-].[Na+] [Sodium nitrite] | 0.92 | 0.884 | 0.752 | 0.941 | – |
| OCc1ccccc1 [Benzyl alcohol] | 0.821 | 0.813 | 0.845 | 0.911 | – |
| NC=O [Formamide] | 0.915 | 0.912 | 0.94 | 1.41 | – |
| COc1cc(S(=O)(=O)[O-])c(C)cc1/N=N/c1c(O)ccc2cc(S(=O)(=O)[O-])ccc12.[Na+].[Na+] | 0.934 | 0.936 | 0.887 | 0.502 | – |
| Oc1ccc(O)cc1 [Hydroquinone] | 1.05 | 1.01 | 0.978 | 0.111 | – |
| CCc1ccc(CCOc2ccc(CC3SC(=O)NC3=O)cc2)nc1.Cl (stereo not given) [Pioglitazone hydrochloride] | 1.05 | 1.04 | 1.05 | 0.846 | – |

| Structure (SMILES) | Renilla luciferase signal (concentration: 0.1 uM) | Renilla luciferase signal (concentration: 1 uM) | Renilla luciferase signal (concentration: 10 uM) | Renilla luciferase signal (concentration: 100 uM) | Renilla luciferase signal (concentration: 0.01 uM) |
| --- | --- | --- | --- | --- | --- |
| CNCc1ccc(NC(=O)c2c[nH]c3c2C(=O)CCC3)cc1 | 0.616 | 0.8 | 0.437 | 0.144 | – |
| CCCCC(CC)C(=O)OCCOCCOCCOC(=O)C(CC)CCCC (stereo not given) [Triethylene glycol bis(2-ethylhexanoate)] | 0.926 | 1.01 | 1.02 | 1.52 | – |
| O=C(O)c1cccc(C(=O)O)c1 [1,3-Benzenedicarboxylic acid] | 1.04 | 1.04 | 1.06 | 1.35 | – |
| CNC(=O)[C@H]1O[C@@H](n2cnc3c(NCc4cc(Cl)ccc4OCc4cc(C)no4)ncnc32)[C@H](O)[C@@H]1N | 0.795 | 0.845 | 0.795 | 1.12 | – |
| Nc1ccc2c(c1)C(=O)c1ccccc1C2=O [2-Aminoanthraquinone] | 1.16 | 0.898 | 0.829 | 0.621 | – |
| O=c1ccc2ccccc2o1 [Coumarin] | 1.21 | 1.07 | 1.11 | 1.15 | – |
| CS(=O)(=O)OCCCCOS(C)(=O)=O [Busulfan] | 0.819 | 0.808 | 0.89 | 1.06 | – |
| OCCO [Ethylene glycol] | 0.433 | 0.696 | 0.664 | 1.01 | – |
| CCCCCCCCCCCCOS(=O)(=O)[O-].[Na+] [Sodium dodecyl sulfate] | 0.62 | 0.742 | 0.587 | 1.14 | – |
| COCCOC[C@H](CC1(C(=O)N[C@H]2CC[C@@H](C(=O)O)CC2)CCCC1)C(=O)Oc1ccc2c(c1)CCC2 [Candoxatril] | 0.88 | 0.879 | 0.984 | 1.03 | – |
| CC/C(=C(\c1ccccc1)c1ccc(OCCN(C)C)cc1)c1ccccc1 [Tamoxifen] | 1.03 | 1.05 | 0.837 | 0.264 | – |
| CSC(=O)c1cccc2nnsc12 [Acibenzolar-S-methyl] | – | – | – | 1.8 | – |
| OCCC(F)(F)C(F)(F)C(F)(F)C(F)(F)C(F)(F)C(F)(F)F [3,3,4,4,5,5,6,6,7,7,8,8,8-Tridecafluorooctan-1-ol] | 0.641 | 0.968 | 0.806 | 1.17 | – |
| NCCOCCOCCN [2,2'-[Ethane-1,2-diylbis(oxy)]diethanamine] | 0.612 | 0.862 | 0.846 | 0.971 | – |
| COc1ccc(/C=C/S(=O)(=O)[N-]C(=O)c2ccc(C)cc2Cl)cc1.[Na+] | 0.951 | 0.894 | 0.525 | 0.237 | – |
| O=C(OCCOCCOC(=O)c1ccccc1)c1ccccc1 [Diethylene glycol dibenzoate] | 0.873 | 0.885 | 1 | 1.18 | – |
| CC(C)(C)c1cc(O)c(C(C)(C)C)cc1O [2,5-Di-tert-butylbenzene-1,4-diol] | 1.04 | 0.969 | 0.801 | 0.0322 | – |
| CC(C)(O)c1ccc(CNC(=O)c2cccnc2Oc2ccc(F)cc2)cc1 | 1.01 | 1.09 | 1.01 | 0.119 | – |
| Cc1oc2c(NC(=O)c3c(Cl)cccc3Cl)cccc2c1C(C)(C)O | 1.07 | 0.836 | 0.823 | 0.0189 | – |
| O=C(O)c1ccccc1C(=O)OCc1ccccc1 [Monobenzyl phthalate] | 1.18 | 1.27 | 1.27 | 1.52 | – |
| CCCCCCCCCC [Decane] | 0.682 | 0.706 | 0.66 | 0.819 | – |
| O=C([O-])c1ccccc1.[Na+] [Sodium benzoate] | 1.2 | 1.1 | 0.949 | 1.16 | – |

Just Renilla luciferase signal (concentration: 0.1 uM), Renilla luciferase signal (concentration: 0.01 uM) and Renilla luciferase signal (concentration: 1 uM) (3 entries from above):
Structure (SMILES)	Renilla luciferase signal (concentration: 0.1 uM)	Renilla luciferase signal (concentration: 0.01 uM)	Renilla luciferase signal (concentration: 1 uM)
CCc1ccc(CCOc2ccc(CC3SC(=O)NC3=O)cc2)nc1.Cl (stereo not given) [Pioglitazone hydrochloride]	1.05	–	1.04
CC(C)(C)c1cc(O)c(C(C)(C)C)cc1O [2,5-Di-tert-butylbenzene-1,4-diol]	1.04	–	0.969
Cc1oc2c(NC(=O)c3c(Cl)cccc3Cl)cccc2c1C(C)(C)O	1.07	–	0.836

Carrying on.

| Structure (SMILES) | Renilla luciferase signal (concentration: 0.1 uM) | Renilla luciferase signal (concentration: 1 uM) | Renilla luciferase signal (concentration: 10 uM) | Renilla luciferase signal (concentration: 100 uM) | Renilla luciferase signal (concentration: 0.01 uM) |
| --- | --- | --- | --- | --- | --- |
| COc1ccc(CC(N)C(=O)NC2C(CO)OC(n3cnc4c(N(C)C)ncnc43)C2O)cc1 (stereo not given) [Puromycin] | 0.717 | 0.0869 | 0.00541 | 0.00641 | 0.815 |
| NC1CCCCC1 [Cyclohexylamine] | 1.06 | 1 | 1.16 | 1.6 | – |
| CC(C)CC(C)O (stereo not given) [4-Methyl-2-pentanol] | 0.909 | 0.933 | 0.917 | 1.04 | – |
| O=[Si]=O [Silica] | 0.524 | 0.58 | 0.763 | 0.873 | – |
| CC1(C)NC(=O)NC1=O [5,5-Dimethylhydantoin] | 1.21 | 1.06 | 1.28 | 1.42 | – |
| COc1ccc2cc(S(=O)(=O)NC(CC(=O)NC(Cc3ccc(CN4C(C)CCCC4C)cc3)C(=O)N(C)C(C)C)c3ccc4c(c3)OCO4)ccc2c1.Cl (stereo not given) | 0.891 | 0.941 | 0.717 | 0.0302 | – |
| O=C(O)c1ccccc1 [Benzoic acid] | – | – | – | 1.77 | – |
| CS(=O)(=O)O.Cc1cc(CCN2CCN(c3nsc4ccccc34)CC2)cc2c1NC(=O)CC2(C)C | 0.732 | 0.744 | 0.441 | 0.0184 | – |
| CCCc1cc(=O)[nH]c(=S)[nH]1 [6-Propyl-2-thiouracil] | 0.55 | 0.608 | 0.692 | 0.473 | – |
| CCCCC(CC)COP(=O)(OCC(CC)CCCC)OCC(CC)CCCC (stereo not given) [Tris(2-ethylhexyl) phosphate] | 1.07 | 0.912 | 1.13 | 1.42 | – |
| CC(=O)c1ccc2c(c1)[C@H](NC(=O)c1ccc(F)cc1)[C@@H](O)C(C)(C)O2 [Carabersat] | 1.08 | 1.09 | 1.32 | 1.23 | – |
| C[C@]12CC[C@@H]3c4ccc(O)cc4CC[C@H]3[C@@H]1CC[C@@H]2O [17beta-Estradiol] | 0.82 | 0.745 | 0.676 | 0.0341 | – |
| CC1COc2c(N3CCN(C)CC3)c(F)cc3c(=O)c(C(=O)O)cn1c23 (stereo not given) [Levofloxacin] | 0.86 | 0.914 | 0.779 | 1.11 | 0.947 |
| C1N2CN3CN1CN(C2)C3 [Methenamine] | 0.953 | 0.93 | 1.02 | 1.19 | – |
| O=C([O-])c1[nH]n(-c2ccc(S(=O)(=O)[O-])cc2)c(=O)c1/N=N/c1ccc(S(=O)(=O)[O-])cc1.[Na+].[Na+].[Na+] [FD&C Yellow 5] | 1.1 | 1.15 | 1.15 | 0.999 | – |
| OC[C@@H](O)[C@@H](O)[C@H](O)[C@H](O)CO [D-Mannitol] | 1.02 | 1.01 | 1.1 | 1.32 | – |
| CC(C)(c1ccc(O)cc1)c1ccc(O)cc1 [Bisphenol A] | 0.92 | 0.907 | 0.858 | 0.151 | 0.878 |
| COc1cc(/C=C/C(=O)CC(=O)/C=C/c2ccc(O)c(OC)c2)ccc1O [Curcumin] | 0.957 | 0.979 | 0.827 | 0.0168 | 0.828 |
| COC(=O)CCC(=O)OC [Dimethyl succinate] | 1.1 | 1.08 | 1.12 | 1.24 | – |
| Nc1nc(N)c2nc(CNc3ccc(C(=O)N[C@@H](CCC(=O)O)C(=O)O)cc3)cnc2n1 [4-Aminofolic acid] | 1.08 | 1.07 | 0.151 | 0.171 | – |
